In the supplement of paper PMC3334620:
Over roughly 33,000 sequences, “E-score (-0.5 to 0.5)” has its median near -0.015; the highest 2% begin near 0.3. This is one part of the list.

target: T1, Abf1 (UniProt P14164); test: PBM E-score (8-mer binding enrichment) (E-score (-0.5 to 0.5)); higher = stronger / more preferred TF binding; conditions: protein concentration: 200 nM; construct: GST-full length
T1 sequence: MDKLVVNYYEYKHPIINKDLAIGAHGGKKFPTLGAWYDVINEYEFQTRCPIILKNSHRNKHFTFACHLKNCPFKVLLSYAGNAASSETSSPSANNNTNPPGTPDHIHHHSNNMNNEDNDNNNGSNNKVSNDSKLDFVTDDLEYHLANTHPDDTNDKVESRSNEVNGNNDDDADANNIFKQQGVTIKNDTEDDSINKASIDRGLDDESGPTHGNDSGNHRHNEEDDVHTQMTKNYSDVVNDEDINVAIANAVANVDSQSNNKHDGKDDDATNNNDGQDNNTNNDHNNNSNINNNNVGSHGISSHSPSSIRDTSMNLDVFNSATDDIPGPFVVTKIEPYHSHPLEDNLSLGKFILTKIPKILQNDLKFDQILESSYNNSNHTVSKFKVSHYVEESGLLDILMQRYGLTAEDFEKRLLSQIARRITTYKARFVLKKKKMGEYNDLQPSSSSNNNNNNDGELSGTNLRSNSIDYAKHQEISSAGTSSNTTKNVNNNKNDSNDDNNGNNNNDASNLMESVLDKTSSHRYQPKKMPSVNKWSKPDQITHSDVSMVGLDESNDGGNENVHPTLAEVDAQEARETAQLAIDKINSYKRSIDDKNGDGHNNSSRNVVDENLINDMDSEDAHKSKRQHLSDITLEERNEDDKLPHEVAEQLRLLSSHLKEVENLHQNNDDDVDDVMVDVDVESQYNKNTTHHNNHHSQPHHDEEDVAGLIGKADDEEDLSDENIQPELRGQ
Procedure: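 Universal 'all 10-mer' protein binding microarrays (Agilent AMADID 015681) probed with GST-tagged S. cerevisiae TFs (full-length or DBD) made by in vitro transcription/translation (PURExpress), about 100-200 nM. Bound TF was detected with fluorescent anti-GST. Each ungapped 8-mer (which stands for itself and its reverse complement) is scored by the PBM enrichment score (E-score), a modified Wilcoxon-Mann-Whitney statistic from -0.5 to +0.5, computed with the Universal PBM Analysis Suite. Scale: above 0.35 generally sequence-specific binding.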

Going from TAGCTTCA to AGCTGACG, the “PBM E-score” value rises from -0.123 to 0.0173.

Going from CATATGTA to ATAGAGCA, the “PBM E-score” value rises from -0.124 to 0.142.

First: GTCAGGTA
Second: CGTAAACA
The “PBM E-score” value of the first is lower: -0.0617 for the first, 0.229 for the second.

Going from GTATGTGA to CTGTCCTC, the “PBM E-score” value falls from 0.241 to -0.116.

Going from GACGTAGC to ACGCTACG, the “PBM E-score” value falls from 0.228 to 0.184.

Compared with AACATCGG, AATAAGGG is lower in “PBM E-score” value: -0.0578 for the first, -0.0888 for the second.

Going from CTATCCAA to ACACCCAG, the “PBM E-score” value falls from -0.0136 to -0.231.

Compared with TCCCTTCA, AAACATTG is lower in “PBM E-score” value: 0.13 for the first, -0.251 for the second.

Compared with AGTAATTC, AGTCGAGC is lower in “PBM E-score” value: 0.17 for the first, -0.144 for the second.

Compared with AGAGAATA, GGCACCTA is lower in “PBM E-score” value: 0.0964 for the first, -0.0595 for the second.

First: AGCATCTA
Second: CACATCGG
The “PBM E-score” value of the first is lower: -0.0946 for the first, -0.0848 for the second.

Going from GTGCATTA to GCAGCCTA, the “PBM E-score” value falls from 0.156 to -0.109.

Compared with TGTATACA, CGAATCCA is higher in “PBM E-score” value: 0.132 for the first, 0.176 for the second.

Going from ATTTAAGC to ACGCGTCA, the “PBM E-score” value rises from 0.159 to 0.237.

First: GTCTGACA
Second: CCGACCGC
The “PBM E-score” value of the first is higher: 0.133 for the first, -0.0918 for the second.

Going from TAGGACGA to GAATCCGC, the “PBM E-score” value falls from 0.0645 to -0.248.

Compared with TAACATCA, ACCCAGGG is lower in “PBM E-score” value: 0.29 for the first, -0.318 for the second.

First: ACGTGAGC
Second: AGACCGTG
The “PBM E-score” value of the first is lower: -0.173 for the first, 0.0697 for the second.

Compared with GCCTACAC, CTGCGGGA is lower in “PBM E-score” value: -0.192 for the first, -0.201 for the second.

Going from ATTCGTGG to GCATCGAA, the “PBM E-score” value falls from 0.296 to -0.0438.

Compared with AATCTACT, AGCTCGCC is higher in “PBM E-score” value: -0.024 for the first, 0.0319 for the second.

First: GTCTTGCA
Second: GCATCACA
The “PBM E-score” value of the first is lower: -0.00339 for the first, 0.0163 for the second.

Going from AACACCGA to AAGGGGTA, the “PBM E-score” value rises from -0.359 to -0.211.

First: AGGTGCAT
Second: CAGCTGTC
The “PBM E-score” value of the first is lower: -0.124 for the first, -0.0435 for the second.

Going from GCTACCAC to TGCGTGAA, the “PBM E-score” value rises from -0.122 to 0.112.

Compared with CGAAACAG, AACTCTCC is lower in “PBM E-score” value: 0.0245 for the first, -0.124 for the second.

First: AGACATGC
Second: CGAGTCAA
The “PBM E-score” value of the first is lower: -0.118 for the first, -0.0144 for the second.

Going from CGGCGCCG to TAAACTCA, the “PBM E-score” value falls from 0.0376 to -0.0231.

Going from AGCCACAC to AAACTCAT, the “PBM E-score” value falls from -0.0651 to -0.145.

Going from CGCAGATC to CGACTACG, the “PBM E-score” value rises from -0.0524 to 0.124.

Going from CTGATACA to CATGAGCA, the “PBM E-score” value falls from 0.0567 to -0.118.

Going from AAGTCTCC to CAATTGTG, the “PBM E-score” value falls from 0.0627 to -0.121.

First: ATACCGTC
Second: CTAGACTC
The “PBM E-score” value of the first is higher: 0.213 for the first, -0.358 for the second.

Compared with ATGCATGA, AAGCCTAA is higher in “PBM E-score” value: 0.071 for the first, 0.0733 for the second.

Compared with AGAGGTAG, TATAAAAA is higher in “PBM E-score” value: -0.274 for the first, 0.224 for the second.

Going from CAATGAGC to AAGTCATT, the “PBM E-score” value rises from -0.0647 to 0.24.

Compared with CGAGCCCA, AGTCGCCC is lower in “PBM E-score” value: -0.11 for the first, -0.324 for the second.

First: ACCGCTAC
Second: CGGCGTCC
The “PBM E-score” value of the first is lower: -0.135 for the first, -0.0213 for the second.

Going from CGCTATGA to ATGCTAGG, the “PBM E-score” value falls from 0.0621 to -0.222.

First: AGTCGGAT
Second: GTAAAACA
The “PBM E-score” value of the first is higher: 0.136 for the first, -0.137 for the second.

Going from AGTAGTTA to CTCGAGAA, the “PBM E-score” value falls from -0.0177 to -0.0621.

Compared with CGGCATCA, GCTGGTAA is lower in “PBM E-score” value: 0.0544 for the first, -0.0518 for the second.

First: CTTGAAGA
Second: ACAGCTTA
The “PBM E-score” value of the first is lower: -0.0824 for the first, 0.0356 for the second.

Compared with ATAAGGAT, CGTAATGA is higher in “PBM E-score” value: -0.00817 for the first, 0.192 for the second.

First: TAATATGA
Second: CGAGGGTA
The “PBM E-score” value of the first is higher: 0.261 for the first, -0.246 for the second.

First: ACTATACA
Second: TGATCCAA
The “PBM E-score” value of the first is higher: 0.0355 for the first, 0.0142 for the second.

Compared with AATGACGT, CATCCGCG is lower in “PBM E-score” value: 0.125 for the first, 0.0531 for the second.

Compared with ATAGCTAT, AAGTACTA is higher in “PBM E-score” value: 0.0215 for the first, 0.18 for the second.

First: AAGTGGCC
Second: ATTGCGTA
The “PBM E-score” value of the first is lower: -0.235 for the first, 0.0994 for the second.

First: TCCTTAAA
Second: CTGCTCCC
The “PBM E-score” value of the first is higher: -0.00311 for the first, -0.106 for the second.

First: AGTACCCA
Second: CACCCTCA
The “PBM E-score” value of the first is lower: -0.149 for the first, -0.055 for the second.

First: AAAAGCTA
Second: ATAAAGTA
The “PBM E-score” value of the first is lower: -0.055 for the first, 0.207 for the second.

Going from AAGTCTTG to CGGGGCTA, the “PBM E-score” value falls from -0.0508 to -0.127.

First: CTTTACTC
Second: ACGCCCGG
The “PBM E-score” value of the first is higher: 0.0152 for the first, -0.0761 for the second.

First: GGGTTTTA
Second: ATGTTACG
The “PBM E-score” value of the first is lower: -0.0154 for the first, 0.087 for the second.

Compared with ACTCGCAA, CAGCCTCC is lower in “PBM E-score” value: 0.151 for the first, -0.349 for the second.

Compared with AGAGGAAG, CTCCAAGC is higher in “PBM E-score” value: -0.206 for the first, -0.119 for the second.

Compared with GGGCGCGA, CATACATG is lower in “PBM E-score” value: 0.0618 for the first, -0.0971 for the second.

First: AGCCCCGG
Second: GGCCTCAA
The “PBM E-score” value of the first is lower: -0.277 for the first, 0.0563 for the second.

First: CCCGCGGC
Second: CCCTCAGC
The “PBM E-score” value of the first is lower: -0.132 for the first, 0.00371 for the second.

Compared with AAATCACG, AAACCTGG is lower in “PBM E-score” value: 0.284 for the first, -0.118 for the second.

Compared with CACGAGCA, CGTGAGAC is higher in “PBM E-score” value: 0.0916 for the first, 0.2 for the second.

Compared with GATCAACA, AATCTCGG is lower in “PBM E-score” value: 0.0153 for the first, -0.0608 for the second.

Going from ATCCGCGC to TCCGCAGA, the “PBM E-score” value rises from -0.119 to 0.0445.

First: CAGATGAC
Second: ACAACAGT
The “PBM E-score” value of the first is higher: 0.058 for the first, -0.0472 for the second.

Going from AACGGCAT to CTCAGCGC, the “PBM E-score” value falls from 0.226 to 0.0424.

Going from GACTTACC to GGGGGGTA, the “PBM E-score” value falls from -0.249 to -0.355.

First: AACAATTG
Second: ACTCAAAC
The “PBM E-score” value of the first is lower: -0.0299 for the first, 0.106 for the second.

Compared with GGCCCCCA, CTACTAGC is higher in “PBM E-score” value: -0.332 for the first, 0.13 for the second.

Going from ACGACCCC to GACGCTAC, the “PBM E-score” value rises from -0.226 to 0.0935.

Compared with ACGGAAAG, GATGCTGA is lower in “PBM E-score” value: 0.184 for the first, -0.123 for the second.

Going from CCAACACG to GCCTGTCC, the “PBM E-score” value falls from 0.0481 to -0.144.

First: CGGACGAG
Second: AATGAATA
The “PBM E-score” value of the first is higher: 0.191 for the first, 0.0115 for the second.

Compared with GTACCGCA, ACTAACCT is higher in “PBM E-score” value: 0.0867 for the first, 0.155 for the second.

Compared with CTTACCAA, CTATACCC is lower in “PBM E-score” value: -0.0633 for the first, -0.104 for the second.

First: TGTCACAA
Second: CACCTAGC
The “PBM E-score” value of the first is higher: 0.225 for the first, -0.132 for the second.

Compared with GTGATATA, ACTGAGTC is lower in “PBM E-score” value: 0.395 for the first, -0.0716 for the second.

First: ATGAAGCC
Second: TCTTCACA
The “PBM E-score” value of the first is lower: 0.0793 for the first, 0.162 for the second.

Going from CGCACAAC to ATCTCCGA, the “PBM E-score” value rises from -0.0584 to 0.124.

Going from ATCCCGGG to CCGAGTAG, the “PBM E-score” value falls from -0.0967 to -0.188.

First: CAGCTGAA
Second: AGGAATTG
The “PBM E-score” value of the first is lower: -0.0697 for the first, 0.0611 for the second.

Compared with GGCCGCGA, GAAGCGTA is higher in “PBM E-score” value: -0.174 for the first, -0.0943 for the second.

Going from CGGTTATA to CTGCCCGC, the “PBM E-score” value falls from -0.00597 to -0.0714.

Compared with GCACGGGA, GACCTTTA is higher in “PBM E-score” value: 0.0185 for the first, 0.0335 for the second.

Going from AATCTATC to AACTGGAT, the “PBM E-score” value falls from 0.0351 to 0.0313.

Compared with ACTGAGGC, CTTATCCC is higher in “PBM E-score” value: -0.112 for the first, -0.0767 for the second.
